# Measurements taken from PubChem BioAssay AID651768 (National Center for Advancing Translational Sciences (NCATS), 2012).
# The chains behind the UniProt entries cited, without tags or fusion partners.
# UniProt Q14191, whole entry, looked up: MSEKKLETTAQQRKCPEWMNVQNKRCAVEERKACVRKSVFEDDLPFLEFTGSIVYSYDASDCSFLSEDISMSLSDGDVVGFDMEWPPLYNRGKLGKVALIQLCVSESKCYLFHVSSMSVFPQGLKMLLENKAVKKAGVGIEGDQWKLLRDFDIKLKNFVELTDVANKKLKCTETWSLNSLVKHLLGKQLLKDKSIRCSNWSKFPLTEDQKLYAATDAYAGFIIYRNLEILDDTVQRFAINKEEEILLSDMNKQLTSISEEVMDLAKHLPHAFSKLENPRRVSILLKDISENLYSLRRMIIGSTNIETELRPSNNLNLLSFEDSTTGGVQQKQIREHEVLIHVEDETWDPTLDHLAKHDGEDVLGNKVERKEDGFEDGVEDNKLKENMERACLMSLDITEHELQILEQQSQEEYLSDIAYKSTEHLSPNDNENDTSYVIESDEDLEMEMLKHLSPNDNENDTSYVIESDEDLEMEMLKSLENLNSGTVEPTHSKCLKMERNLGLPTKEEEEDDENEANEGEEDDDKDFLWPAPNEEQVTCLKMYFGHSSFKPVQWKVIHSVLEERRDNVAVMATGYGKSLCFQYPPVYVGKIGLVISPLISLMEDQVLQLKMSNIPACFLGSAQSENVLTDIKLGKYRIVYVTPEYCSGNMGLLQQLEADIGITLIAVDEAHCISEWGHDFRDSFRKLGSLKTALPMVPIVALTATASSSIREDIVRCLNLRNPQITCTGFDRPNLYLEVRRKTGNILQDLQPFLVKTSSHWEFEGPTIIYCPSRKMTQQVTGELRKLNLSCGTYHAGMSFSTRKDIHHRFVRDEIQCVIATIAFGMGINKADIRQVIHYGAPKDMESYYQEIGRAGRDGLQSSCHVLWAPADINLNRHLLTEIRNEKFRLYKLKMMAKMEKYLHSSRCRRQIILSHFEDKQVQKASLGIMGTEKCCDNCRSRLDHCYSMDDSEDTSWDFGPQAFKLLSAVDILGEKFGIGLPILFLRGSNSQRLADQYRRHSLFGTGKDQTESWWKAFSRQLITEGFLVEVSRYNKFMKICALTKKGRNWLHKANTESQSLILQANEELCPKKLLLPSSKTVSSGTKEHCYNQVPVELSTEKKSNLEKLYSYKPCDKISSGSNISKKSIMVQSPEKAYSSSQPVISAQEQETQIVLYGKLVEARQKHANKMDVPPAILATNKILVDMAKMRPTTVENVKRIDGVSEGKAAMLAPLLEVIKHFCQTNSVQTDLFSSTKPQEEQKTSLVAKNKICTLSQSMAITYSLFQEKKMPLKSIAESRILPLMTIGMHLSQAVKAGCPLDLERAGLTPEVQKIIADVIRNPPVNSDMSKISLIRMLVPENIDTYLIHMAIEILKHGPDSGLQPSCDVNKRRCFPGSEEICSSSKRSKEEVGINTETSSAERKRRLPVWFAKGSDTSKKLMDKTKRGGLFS
# Screen size: about 360,000 compounds; about 1,700 (0.47%) were called active. The inconclusive results got no clear call from the source; some entries with a clear call stand among them for comparison. Calls follow the shape of the dose curve; as a rule, active = well fitted inhibition curve with a large enough effect; inconclusive = small, poorly fitted or top-dose-only effect; inactive = no such curve, though single readings can be large or run the other way. Where the call is inconclusive, the potency comes from a doubtful curve fit.
# Target: Bifunctional 3'-5' exonuclease/ATP-dependent helicase WRN (Homo sapiens) (UniProt Q14191)
# Test: qHTS for Inhibitors of WRN Helicase; also: nearly all actives have a fitted effect of over 55% in size
# Conditions: WRN helicase unwinding, fluorescent forked duplex, kinetic; series mostly up to 114 µM
# Method in brief: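 Screening of the MLSMR collection measured strand separation of a quenched forked DNA duplex (100 nM) by 20 nM WRN with 2 mM ATP, all final. Compounds were preincubated with enzyme 15 min at room temperature.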
# Potency is read from the fitted curve at half-maximal effect.
row,SMILES,Potency
1,O=C1c2ccccc2-c2onc3ccc(NCCCn4ccnc4)c1c23,active: 31.6 µM
2,O=C1C=C(O)c2[nH]c(=O)ccc2C1=O,"inconclusive: 35.5 µM [inhibitor, full curve, poor fit]"
3,CCOC(=O)C1=C(C)N=c2s/c(=C/c3ccc(OCC(=O)O)c(OC)c3)c(=O)n2C1c1ccc(Cl)cc1 (stereo not given),active: 28.2 µM
4,CCN(CC)S(=O)(=O)c1ccc(NS(=O)(=O)c2ccc(OC)c([N+](=O)[O-])c2)cc1,"inconclusive: 79.4 µM [inhibitor, partial curve]"
5,COC(=O)c1ccc(=O)c2nc3/c(=C/O)c(O)cc(=O)c3[nH]c12,"inconclusive: 63.1 µM [inhibitor, partial curve]"
6,O=C1NC(=O)/C(=C/c2ccc(-c3cccc([N+](=O)[O-])c3)o2)S1,active: 31.6 µM
7,CCCCC(C(=O)O)C(C)CC(=O)Nc1nncs1 (stereo not given),inactive
8,CCOC(=O)c1sc(=S)n(C)c1NC(=O)c1cccc(Br)c1,"inconclusive: 20 µM [inhibitor, full curve, poor fit]"
9,COc1cccc(/C=C(\C#N)c2nc3ccc(C)cc3[nH]2)c1OCC(=O)O,"inconclusive: 39.8 µM [inhibitor, partial curve]"
10,O=c1cc(C=NNc2ccc([N+](=O)[O-])cc2)[nH]c(=O)[nH]1,"inconclusive: 31.6 µM [inhibitor, partial curve]"
11,CN(C)c1ccc(C=c2c3ccccc3n3c2cc(-c2ccccc2)[n+]3C)cc1,"inconclusive: 14.1 µM [inhibitor, partial curve, poor fit]"
12,COc1ccc2cc(OCC(=O)NNC(=O)Nc3ccc(F)cc3)ccc2c1,"inconclusive: 31.6 µM [inhibitor, full curve, poor fit]"
13,COc1ccc(C(=O)N2CCSCC2)cc1OC1CCN(C(C)=O)CC1,"inconclusive: 22.4 µM [inhibitor, full curve, poor fit]"
14,CCOC1=C/C(=C/c2c(N)n3nc(S(=O)(=O)CC)sc3nc2=O)C=CC1=O,inactive
15,N#Cc1c(NC(=O)CCC(=O)O)sc2c1CCCCC2,inactive
16,O=C1NN(c2ccccc2)C(=O)/C1=C\c1cccc(OC(=O)c2cccs2)c1,"inconclusive: 2.38 µM [inhibitor, partial curve]"
17,O=C(O)c1ccc(-n2cccc2/C=C2/NC(=O)N(c3ccccc3)C2=O)cc1,active: 35.5 µM
18,Cc1c(NC(=O)c2ccc(C(C)(C)C)cc2)cccc1[N+](=O)[O-],"inconclusive: 39.8 µM [inhibitor, single point]"
19,CCCc1cc(CN2CCOCC2)c(O)c(CN2CCOCC2)c1O,active: 17.8 µM
20,O=c1c(C(c2ccc(O)cc2)c2c(O)nc3n(c2=O)CCS3)c(O)nc2n1CCS2,active: 15 µM
21,O=c1c2cc(N3CCOCC3)ccc2[nH]c(=S)n1Cc1ccco1,"inconclusive: 44.7 µM [inhibitor, partial curve]"
22,CN(Cc1nc(-c2cnccn2)no1)CC1(c2ccccc2)CC1(C)C (stereo not given),"inconclusive: 25.1 µM [inhibitor, single point]"
23,Cn1c(N)c(C(=O)COC(=O)c2cc(-c3ccco3)nc3ccccc23)c(=O)n(C)c1=O,active: 28.2 µM

row,SMILES,Potency
1,Cc1ccc(OCCN2CCN(C)CC2)c([N+](=O)[O-])c1,"inconclusive: 25.1 µM [inhibitor, full curve, poor fit]"
2,COc1cc(-c2cc(NC=O)c3ncc(-c4ccc(F)cc4)n3c2)cc(OC)c1OC,active: 56.2 µM
3,COc1ccc(C2/C(=C(/O)c3ccc(F)cc3)C(=O)C(=O)N2c2ccccn2)cc1OC (stereo not given),"inconclusive: 89.1 µM [inhibitor, single point]"
4,CC1CCCC(NC(=O)CSc2ccc(F)cc2)C1C (stereo not given),inactive
5,CSCCC(C(=O)OC1CCOC1=O)N1C(=O)c2ccccc2C1=O (stereo not given),"inconclusive: 50.1 µM [inhibitor, partial curve]"
6,Cc1ccc(-c2csc3ncn(CC#N)c(=O)c23)cc1,inactive
7,c1ccc(-c2ccc(-c3nc(-c4ccccn4)no3)cc2)cc1,inactive
8,CCCCCCCCCS(=O)(=O)Nc1cc(C)ccn1,"inconclusive: 39.8 µM [inhibitor, single point]"
9,c1coc(CSSCc2ccco2)c1,active: 50.1 µM
10,CCOC(=O)C1=C(COC(=O)COc2ccc(Br)cc2)NC(=O)NC1C (stereo not given),inactive
11,O=C(N/N=C/c1ccncc1)c1ccc(-n2cccc2)cc1,inactive
12,CNc1ncnc2c1ncn2[C@H]1CN(Cc2ccc(F)cc2)C[C@@H](CO)O1,inactive
13,CC(C)CCNC(=O)c1nn(Cc2ccccc2)c(=O)c2ccccc12,"inconclusive: 89.1 µM [inhibitor, single point]"
14,N#Cc1ncc(Cc2ccccc2)nc1C#N,active: 1.68 µM
15,Cc1cc(C)cc(NC(=O)C(NCCN2CCOCC2)c2ccccc2)c1 (stereo not given),"inconclusive: 10 µM [inhibitor, full curve, poor fit]"
16,Cn1cnnc1Sc1ccc(/C=C(\CC(=O)O)c2nc3ccccc3s2)cc1[N+](=O)[O-],"inconclusive: 44.7 µM [inhibitor, partial curve]"
17,COCCn1c(=O)sc2ccccc2c1=O,"inconclusive: 70.8 µM [inhibitor, partial curve]"
18,CN(C)c1ccc(C(=O)OCC(=O)Nc2cccc(S(=O)(=O)N3CCCC3)c2)cc1,"inconclusive: 25.1 µM [inhibitor, single point]"
19,COCC(=O)N1C[C@@H](C)[C@@H](OC)CN(C)C(=O)c2ccc(NC(=O)c3cnccn3)cc2OC[C@H]1C,inactive
20,O=C(NN=C1C2CC3CC(C2)CC1C3)c1cc(Cl)ccc1O,"inconclusive: 89.1 µM [inhibitor, single point]"
21,FC(F)(F)c1cccc(CNC2CCN(Cc3ccccc3)CC2)c1,"inconclusive: 89.1 µM [inhibitor, single point]"
22,CCN1CCN(c2cc(C)c3cc(NC(=O)c4cncc(Br)c4)ccc3n2)CC1,"inconclusive: 35.5 µM [inhibitor, full curve, poor fit]"

# Grouped by structure: those above containing an aryl thioether with sulfur outside any ring (2)
row,SMILES,Potency
4,CC1CCCC(NC(=O)CSc2ccc(F)cc2)C1C (stereo not given),inactive
16,Cn1cnnc1Sc1ccc(/C=C(\CC(=O)O)c2nc3ccccc3s2)cc1[N+](=O)[O-],"inconclusive: 44.7 µM [inhibitor, partial curve]"
